Reference: article PMC523230, “Dictyostelium Myosin Bipolar Thick Filament Formation: Importance of Charge and Specific Domains of the Myosin Rod” (PLoS Biology, 2004)
No constants are given. Whether binding was seen depends on the method and setting. Some entries that bind do so weakly or less than the wild type.

Tests used:
[1] = biological target: AD-2015 (2xThr) (Dictyostelium discoideum) (UniProt P08799); experiment: sedimentation assembly assay; unpublished data; self-assembly of AD-2015 (2xThr); both purified
[2] = biological target: AD-Cterm (3xAsp) myosin-II tail fragment (Dictyostelium discoideum) (UniProt P08799); experiment: negative-stain electron microscopy; unpublished data; electron micrographs of assembled samples; both purified
[3] = biological target: AD-Cterm (3xThr) myosin-II tail fragment (Dictyostelium discoideum) (UniProt P08799); experiment: AUC; sedimentation equilibrium; step: coiled coils to larger species; 10.5-52 uM protein, 10 mM Tris pH 7.4, 0.1 mM EDTA, 500 mM NaCl, 10 °C, 10,000 rpm; both purified

In the case of “AD-2015 (2xThr) (from UniProt P08799 1531-2015) (domain or fragment)”, the binding [1] is reported as “binds”.

B1: AD-Cterm (3xAsp) myosin-II tail fragment (domain or fragment, Dictyostelium discoideum)
chain: MNVEFIRKKDAEIDDLRARLDRETESRIKSDEDKKNTRKQFADLEAKVEEAQREVVTIDRLKKKLESDIIDLSTQLDTETKSRIKIEKSKKKLEQTLAERRAAEEGSSKAADEEIRKQVWQEVDELRAQLDSERAALNASEKKIKSLVAEVDEVKEQLEDEILAKDKLVKAKRALEVELEEVRDQLEEEEDSRSELEDSKRRLTTEVEDIKKKYDAEVEQNTKLDEAKKKLTDDVDTLKKQLEDEKKKLNESERAKKRLESENEDFLAKLDAEVKNRSRAEKDRKKYEKDLKDDKYKLNDEAADKTQTEIGAAKLEDQIDELRSKLEQEQAKATQADKSKKTLEGEIDNLRAQIEDEGKIKMRLEKEKRALEGELEELRETVEEAEDSKSEAEQSKRLVELELEDARRNLQKEIDAKEIAEDAKSNLQREIVEAKGRLEEESIARTNSDRSRKRLEAEIDALTAQVDAEQKAKNQQIKENKKIETELKEYRKKFGESEKDKTKEFLVVEKLETDYKRAKKEAADEQQQRLTVENDLRKHLSEISLLKDAIDKLQRDHDKTKRELETETASKIEMQRKMADFFGGFKA
notes: N-terminal methionine added before the myosin residues; Dictyostelium myosin-II heavy chain, a.a; 1,531-2,116, aspartic acids in place of the three threonine phosphorylation sites; Phosphomimetic; also called headless AD-Cterm (3xAsp); 3xAsp tail fragment; source: E. coli BL21-CodonPlus (DE3)-RIL, purified (boiling, DEAE, Superdex 200, Mono Q)
For B1, the binding [2] was “binds weakly”.

B2: AD-Cterm (3xThr) myosin-II tail fragment (domain or fragment, Dictyostelium discoideum)
chain: MNVEFIRKKDAEIDDLRARLDRETESRIKSDEDKKNTRKQFADLEAKVEEAQREVVTIDRLKKKLESDIIDLSTQLDTETKSRIKIEKSKKKLEQTLAERRAAEEGSSKAADEEIRKQVWQEVDELRAQLDSERAALNASEKKIKSLVAEVDEVKEQLEDEILAKDKLVKAKRALEVELEEVRDQLEEEEDSRSELEDSKRRLTTEVEDIKKKYDAEVEQNTKLDEAKKKLTDDVDTLKKQLEDEKKKLNESERAKKRLESENEDFLAKLDAEVKNRSRAEKDRKKYEKDLKDTKYKLNDEAATKTQTEIGAAKLEDQIDELRSKLEQEQAKATQADKSKKTLEGEIDNLRAQIEDEGKIKMRLEKEKRALEGELEELRETVEEAEDSKSEAEQSKRLVELELEDARRNLQKEIDAKEIAEDAKSNLQREIVEAKGRLEEESIARTNSDRSRKRLEAEIDALTAQVDAEQKAKNQQIKENKKIETELKEYRKKFGESEKTKTKEFLVVEKLETDYKRAKKEAADEQQQRLTVENDLRKHLSEISLLKDAIDKLQRDHDKTKRELETETASKIEMQRKMADFFGGFKA
notes: N-terminal methionine added before the myosin residues; Dictyostelium myosin-II heavy chain, a.a; 1,531-2,116 (assembly domain through C terminus); the assembly rows are about coiled coils joining into paracrystals; also called headless AD-Cterm (3xThr); wild-type tail fragment; source: E. coli BL21-CodonPlus (DE3)-RIL, purified (boiling, DEAE, Superdex 200, Mono Q)
In the case of B2, the binding [3] is reported as “no binding (condition: 500 mM NaCl)”.
